Consider 27 compounds from PubChem BioAssay AID330 (DTP/NCI, 2004).

This assay deals with P388 leukemia ip, CD2F1 mice, survival T/C. Put plainly: NCI In Vivo Anticancer Drug Screen. Data for tumor model P388 Leukemia (intraperitoneal) in CD2F1 (CDF1) mice. As to conditions: T/C endpoint: median survival time, higher T/C = longer survival.
[1] abbreviates: dose: 50.0 mg/kg/injection, schedule: Q01DX005 (ip), vehicle: saline with Tween-80.
The mark [2] stands for this setting: dose: 100.0 mg/kg/injection, schedule: Q01DX005 (ip), vehicle: saline with Tween-80.
[3] abbreviates: dose: 200.0 mg/kg/injection, schedule: Q01DX005 (ip), vehicle: saline with Tween-80.
[4] abbreviates: dose: 12.5 mg/kg/injection, schedule: Q01DX009 (ip), vehicle: saline with Tween-80.
The mark [5] stands for this setting: dose: 25.0 mg/kg/injection, schedule: Q01DX009 (ip), vehicle: saline with Tween-80.
Where [6] appears, read: dose: 50.0 mg/kg/injection, schedule: Q01DX009 (ip), vehicle: saline with Tween-80.
Setting [7] is: dose: 100.0 mg/kg/injection, schedule: Q01DX009 (ip), vehicle: saline with Tween-80.
Where [8] appears, read: dose: 200.0 mg/kg/injection, schedule: Q01DX009 (ip), vehicle: saline with Tween-80.
The mark [9] stands for this setting: dose: 120.0 mg/kg/injection, schedule: Q01DX005 (ip), vehicle: Klucel (hydroxypropylcellulose) (HPC).
The mark [10] stands for this setting: dose: 240.0 mg/kg/injection, schedule: Q01DX005 (ip), vehicle: Klucel (hydroxypropylcellulose) (HPC).
[11] abbreviates: dose: 200.0 mg/kg/injection, schedule: Q01DX009 (ip), vehicle: Klucel (hydroxypropylcellulose) (HPC).
Where [12] appears, read: dose: 200.0 mg/kg/injection, schedule: Q04DX002 (ip), vehicle: saline with Tween-80.

Each structure is given as a SMILES string. The list is a part of this screen's results and no random one: it gathers tests that were run many times, whatever their T/C, doses with no T/C, and many T/C values between a quarter and a half above the control. Further doses and runs are listed elsewhere. T/C gives the treated animals as a percentage of the vehicle group. Some doses have a count of surviving animals in place of a T/C: the source holds a T/C of zero for them, seemingly a mark for toxic or unscored doses. Some doses without a T/C left all or most animals alive at the check, yet need not have been tolerated: the source hardly ever lists a survival T/C far under the control, and the zero likely stands for such cases as well. Survivors were counted at the toxicity check, usually on the fifth day, unless a day is given; later deaths do not show. Schedule codes are those of the source, read here as Q, the interval in days (D) or hours (H), X, the number of doses. Some entries hold several experiments; the results are listed from low to high. For survival time, the PubChem record calls one and a half times the control and up active, and a quarter to a half above the control has no call in these data; cut-offs in other NCI protocols can differ. Additions like (4×) say how often a value occurs here. Some T/C values carry the count of animals alive at the toxicity check (mostly the fifth day); where none is given, no animal had died by that day.

Take `C/C(=N\NC(=S)Nc1ccc(S(N)(=O)=O)cc1)c1ccccn1`: the T/C was 128 % of control under setting [1] and 128 % of control under setting [2]. The survivor count under setting [3] is 2 of 6.
As to `Nc1cc2nc3ccccc3nc2cc1N`, the survivor count under setting [2] is 5 of 6.
Regarding `C=CS(=O)(=O)OCCCl`, the T/C was 108, 113, 118, 125 % of control under setting [4]; 108 and 125 % of control under setting [5]. Further, the survivor count by setting is: under setting [5], 2 of 6 and 3 of 6; under setting [6], 0 of 6; under setting [7], 0 of 6; under setting [8], 0 of 6.
Regarding `CN(N=O)C(=O)NNC(=O)N(C)N=O`, the T/C by setting is: (dose: 15.0 mg/kg/injection, schedule: Q01DX009 (ip), vehicle: saline with Tween-80) 127 % of control; (dose: 60.0 mg/kg/injection, schedule: Q01DX009 (ip), vehicle: saline with Tween-80) 131 % of control; (dose: 60.0 mg/kg/injection, schedule: Q04DX003 (ip), vehicle: saline with Tween-80) 125 % of control; (dose: 90.0 mg/kg/injection, schedule: Q04DX003 (ip), vehicle: saline with Tween-80) 127 % of control [5 of 6 alive].
As to `COC(=O)C1(C)CCCC2(C)C1CCC13C=C(C(C)C)C(CC1C(=O)O)CC23` (configuration not stated), the survivor count (dose: 400.0 mg/kg/injection, schedule: Q04DX003 (ip), vehicle: saline with Tween-80) is 2 of 6.
Regarding `N#Cc1ccccc1NC(=O)Nc1ccc(Cl)cc1Cl`, the survivor count is 6 of 6 on day 9 (dose: 3.75 mg/kg/injection, schedule: Q01DX005 (ip), vehicle: saline with Tween-80); 6 of 6 on day 9 (dose: 7.5 mg/kg/injection, schedule: Q01DX005 (ip), vehicle: saline with Tween-80); 6 of 6 and 6 of 6 on day 9 (dose: 15.0 mg/kg/injection, schedule: Q01DX005 (ip), vehicle: saline with Tween-80); 6 of 6 (dose: 30.0 mg/kg/injection, schedule: Q01DX005 (ip), vehicle: saline with Tween-80); 6 of 6 (dose: 60.0 mg/kg/injection, schedule: Q01DX005 (ip), vehicle: saline with Tween-80); 6 of 6 (dose: 120.0 mg/kg/injection, schedule: Q01DX005 (ip), vehicle: saline with Tween-80).
With `CCN(CC)CCOC(=O)Nc1c(Cl)cccc1Cl`, the survivor count is recorded as 1 of 6 under setting [9] and 0 of 6 under setting [10].
As for `[S-]c1n[n+](-c2ccccc2)c(-c2ccccc2)s1`, the survivor count (dose: 400.0 mg/kg/injection, schedule: Q01DX009 (ip), vehicle: saline with Tween-80) is on record as 5 of 6.
In the case of `CCCCCCCCOP(=O)(N1CC1C)N1CC1C` (configuration not stated), the T/C under setting [5] was 131 % of control; the T/C (dose: 33.0 mg/kg/injection, schedule: Q01DX009 (ip), vehicle: saline with Tween-80) is 137 % of control; the T/C (dose: 75.0 mg/kg/injection, schedule: Q01DX009 (ip), vehicle: saline with Tween-80) was 137 % of control. In addition, the survivor count (dose: 100.0 mg/kg/injection, schedule: Q04DX003 (ip), vehicle: saline) is reported as 3 of 6.
On to `COc1cccc2c1C(=O)c1c(O)c3c(c(O)c1C2=O)[C@@H](OC)[C@@](O)(C(=O)CO)C[C@@H]3OC1CC(N)C(O)C(C)O1` (some centres not stated), for which the T/C is, setting by setting: (dose: 6.25 mg/kg/injection, schedule: Q04DX003 (ip), vehicle: water, evaluated on day 30) 125 % of control; (dose: 6.25 mg/kg/injection, schedule: Q04DX003 (ip), vehicle: water, evaluated on day 50) 141 % of control; (dose: 12.5 mg/kg/injection, schedule: Q04DX003 (ip), vehicle: water) 127 % of control. Besides, the survivor count (dose: 50.0 mg/kg/injection, schedule: Q04DX003 (ip), vehicle: water) is reported as 6 of 6 on day 9.
On to `CCSc1ccc2c(cc1=O)C(N)CCc1cc(OC)c(OC)c(OC)c1-2` (configuration not stated), for which, under setting [11], the survivor count is 6 of 6.
With `CCN(CC)CCNc1ccc(C)c2sc3ccc(OC)cc3c(=O)c12`, the T/C under setting [7] was 145 and 147 % of control [5 of 6 alive]. Under setting [8], the survivor count is 6 of 6.
With `COc1cc([C@@H]2c3cc4c(cc3C[C@H]3COC(=O)[C@@H]32)OCO4)cc2c1OCO2`, the T/C (dose: 7.5 mg/kg/injection, schedule: Q01DX009 (ip), vehicle: distilled water + Tween-80) is 125 % of control. Further, the survivor count reads like this: (dose: 15.0 mg/kg/injection, schedule: Q01DX009 (ip), vehicle: Klucel (hydroxypropylcellulose) (HPC)) 6 of 6; (dose: 30.0 mg/kg/injection, schedule: Q01DX009 (ip), vehicle: Klucel (hydroxypropylcellulose) (HPC)) 5 of 6; (dose: 60.0 mg/kg/injection, schedule: Q01DX009 (ip), vehicle: Klucel (hydroxypropylcellulose) (HPC)) 0 of 6.
In the case of `CC(=O)Oc1cc(OCCCc2ccc(F)cc2)cc2ccc3ccccc3c12`, the survivor count under setting [12] is 6 of 6.
With `C=CC(C)(CCC=C(C)C)ON(C)C` (configuration not stated), the survivor count reads like this: under setting [12], 6 of 6; (dose: 400.0 mg/kg/injection, schedule: Q04DX002 (ip), vehicle: saline with Tween-80) 3 of 6.
In the case of `CCN(CCO)CCNc1ccc(C)c2sc3cc(Cl)ccc3c(=O)c12`, the survivor count (dose: 200.0 mg/kg/injection, schedule: Q01DX005 (ip), vehicle: Klucel (hydroxypropylcellulose) (HPC)) is given as 3 of 5.
`NC(=S)c1ncn(C2OC(COC=O)C(OC=O)C2OC=O)c1NC=O` (configuration not stated): the T/C was 133 % of control under setting [1] and 136 % of control under setting [2].
`C=C(C)CC1CN2CCc3cc(OC)c(OC)cc3C2CC1=O` (configuration not stated): the T/C was 125 % of control under setting [11] and 131 % of control under setting [8].
For the compound `COC1=C(N)C(=O)c2nc(-c3nc(C=O)c(C)c(-c4ccc(OC)c(OC)c4O)c3N)ccc2C1=O`, the T/C was 127 % of control (dose: 2.48 mg/kg/injection, schedule: Q01DX009 (ip), vehicle: other, evaluated on day 5); 128 % of control [7 of 8 alive] (dose: 2.48 mg/kg/injection, schedule: Q01DX009 (ip), vehicle: other, evaluated on day 23); 128 % of control (dose: 3.05 mg/kg/injection, schedule: Q01DX009 (ip), vehicle: DMSO); 128 % of control (dose: 3.05 mg/kg/injection, schedule: Q01DX009 (ip), vehicle: other); 127 % of control (dose: 3.72 mg/kg/injection, schedule: Q01DX009 (ip), vehicle: other, evaluated on day 5); 128 % of control (dose: 3.72 mg/kg/injection, schedule: Q01DX009 (ip), vehicle: other, evaluated on day 23). The survivor count is, setting by setting: (dose: 3.03 mg/kg/injection, schedule: Q01DX009 (ip), vehicle: DMSO) 8 of 8; (dose: 12.4 mg/kg/injection, schedule: Q01DX009 (ip), vehicle: other) 7 of 8.
For the compound `CCC/C(=N\NC(=S)N1CCN(c2ccccn2)CC1)c1ccccn1`, the T/C (dose: 25.0 mg/kg/injection, schedule: Q01DX005 (ip), vehicle: saline with Tween-80) was 126 % of control (2×) and the T/C under setting [1] was 126 % of control. Moreover, the survivor count reads like this: under setting [1], 3 of 6; under setting [2], 0 of 6; under setting [3], 0 of 6.
As for `O=C(N=c1sc2ccccc2s1)N=c1sc2ccccc2s1`, the survivor count runs as follows: under setting [9], 6 of 6; under setting [10], 1 of 6.
As for `CC(=O)ON=C1C=CC(=C(C#N)c2ccccc2)C=C1`, the survivor count under setting [8] is given as 4 of 6.
Take `Cc1noc(NS(=O)(=O)c2ccc(N=c3c4ccccc4n(-c4ccccc4)c4ccccc34)cc2)c1C`: the survivor count under setting [3] is reported as 0 of 6.
On to `COc1cccc(C)c1C(O)CC1CCCN1` (configuration not stated), for which the survivor count under setting [11] is reported as 0 of 6.
Regarding `CC(C)CC1N=C(NN=C2CCCCC2)SP1(=O)NNc1ncccn1` (configuration not stated), the survivor count under setting [10] is on record as 0 of 6.
In the case of `IC1=CC2CCC(C1)C2` (configuration not stated), the T/C under setting [7] was 133 % of control.
Turning to `Cc1cc(=O)n2c3c(c4c(cc13)c(CN(C)C)cc(=O)n4C)OC2`, the T/C reads like this: under setting [4], 133 % of control; under setting [5], 127 % of control; under setting [6], 130 % of control. The survivor count runs as follows: under setting [7], 1 of 6; under setting [8], 0 of 6.
